Assay results reported in PubChem BioAssay AID662 (National Center for Advancing Translational Sciences (NCATS), 2007).
Some of the results follow. These are further read-outs of the screen, such as a control signal, another cell line or another target. No call is given for them. Compounds called inactive in the main read-out are mostly missing here. Potencies come from curve fits of mixed quality, noted in brackets.

Test: Cell signaling CRE-BLA (Fsk stim)
Details: CHO CRE-bla reporter (cAMP response element driving beta-lactamase), forskolin EC10, beta-lactamase ratio; measured here: 460 nm blue channel
From the text: NIH Molecular Libraries Screening Centers Network [MLSCN]
NIH Chemical Genomics Center [NCGC]
Assay Provider: Marshall W. Nirenberg, U.S. National heart lung & blood institute
Memories persist for different lengths of time, from seconds or minutes to a lifetime. There are two kinds of memory: short-term memory (STM) and long-term memory (LTM). STM lasts for minutes to hours, which maybe mediated by modifications of molecules involved in synaptic functions. LTM lasts for days or longer, and may be due to the formation of new synapses or restructuring of existing synapses. LTM, but not STM, requires gene transcription and synthesis of proteins. CREB (cyclic-AMP Responsive Element Binding Protein) is one of the candidates plays an important role for enhancement of some types of LTM. CREB, a family of transcription factors, regulates the transcription of genes containing cAMP Responsive Elements (CRE). CRE is a nucleotide sequence often found in the promoter regions of genes that are binding sites for CREB.
Using a beta-lactamase reporter-gene under control of cAMP responsive element, a cell-based assay [CellSensor(TM) CRE-bla CHO developed by Invitrogen Corp.] was used to measure forskolin-induced signaling. Library compounds were measured for their ability to modulate positively or negatively the action of EC10 NKH 477, a water soluble forskolin, on reporter gene activity. Compounds were screened in a titration series in 1536-well format. Positive and negative modulators were identified based on the AC50 values derived from the screening data.
NCGC Assay Protocol Summary
2000 cells/5uL in Opti-MEM medium containing 0.5% dialyzed FBS, 0.1 mM NEAA, 1 mM sodium pyruvate and 10 mM HEPES was dispensed into 1536-well plates and cells were cultured at 37 degrees Celsius overnight. […] And then the plates were incubated at 37 degrees Celsius for 3 hours. 1 uL of CCF4-dye mixture was added to each well. After incubated at room temperature for 2 hours the plates were measured on an EnVision plate reader at Excitation 405nm, Emission1=460nm and Emission 2=530nm. The %Activity was determined from the ratio of 460nm/530nm.
Keywords: NIH Roadmap, MLSCN, MLSMR, qHTS, NCGC, CRE, beta-lactamase reporter-gene assay.

SMILES	AC50
O=S1(=O)C=C(Oc2ccc(F)cc2)c2ccccc21	0.00316 µM [falling, full curve, poor fit]
COc1ccc(CCNC(=O)CN(c2ccccc2OC)S(C)(=O)=O)cc1	31.6 µM [falling, single point]
Cc1cccc(N2CCN(C(=O)c3cc4c(C)nc5ccccc5c4o3)CC2)c1C	3.98 µM [rising, single point]
Cc1ccc(NC(=O)Cn2nnc(C(=O)NCc3ccccc3)c2N)cc1C	0.01 µM [falling, full curve, poor fit]
CCCCOC(=O)n1c(SCC(=O)N(CC)CC)nc2ccccc21	10 µM [rising, partial curve]
COc1ccc(Cn2c(=O)[nH]c3cc(C(=O)NCc4ccc5c(c4)OCO5)ccc3c2=O)cc1	12.6 µM [falling, single point]
CCCC(=O)N1c2ccc(-c3csc(N)n3)cc2CC1C (stereo not drawn)	12.6 µM [rising, single point]
COc1ccc(Cc2nnc(-c3cccc(C)c3)o2)cc1OC	3.16 µM [rising, full curve]
Cc1c(/N=C/c2ccco2)n(Cc2ccccc2)c2ccccc12	5.01 µM [falling, single point]
CCOC(=O)c1sc(NC(=O)CSc2nnc(C)s2)c(C(=O)OCC)c1C	1.58 µM [rising, full curve, poor fit]
O=C(CN1C(=O)c2ccccc2S1(=O)=O)NCc1cccnc1	0.00316 µM [rising, full curve, poor fit]
O=C(c1ccc(N2CN(C(=O)c3ccco3)c3nc4ccccc4nc32)cc1)N1CCOCC1	12.6 µM [rising, single point]
O=C(O)CCc1ccc(-c2cccs2)n1NC(=O)c1ccc(Cl)cc1	0.00316 µM [falling, full curve, poor fit]
Cc1sc2nc3ccc(N4CCCCC4)nn3c(=O)c2c1C	10 µM [rising, single point]
OCCN1CCN(c2ncnc3nc[nH]c23)CC1	10 µM [rising, partial curve]
Cc1ccc(-c2nc(C3CCCN(S(=O)(=O)c4ccc(C)cc4)C3)no2)cc1 (stereo not drawn)	15.8 µM [falling, single point]
CCC(C)NC(=O)c1cnn2c(C)c3c(nc12)CCCC3 (stereo not drawn)	7.94 µM [rising, partial curve]
COc1ccc(CC(=O)NC(CC(=O)O)c2ccc(OC)cc2)cc1 (stereo not drawn)	5.01 µM [falling, partial curve, poor fit]
CCN(CC)c1nc(N)c2c(N)n(-c3ccccc3C)c(=S)c(C#N)c2c1C#N	20 µM [falling, partial curve]
Cn1c2ccccc2c2c(C(=O)NCCCN3CCCC3=O)cn(C3CCCCC3)c(=O)c21	12.6 µM [rising, partial curve]
O=c1c(-c2ccc(Cl)cc2)nc2cnc(N3CCOCC3)nc2n1CCc1ccccc1	12.6 µM [rising, partial curve]
O=C(Nc1c(-c2ccccc2)nc2c(Br)cc(Br)cn12)c1ccco1	0.501 µM [falling, full curve, poor fit]

4 compounds from above, sorted by number of heavy atoms, low to high.
SMILES	AC50
CCC(C)NC(=O)c1cnn2c(C)c3c(nc12)CCCC3 (stereo not drawn)	7.94 µM [rising, partial curve]
Cc1c(/N=C/c2ccco2)n(Cc2ccccc2)c2ccccc12	5.01 µM [falling, single point]
O=C(O)CCc1ccc(-c2cccs2)n1NC(=O)c1ccc(Cl)cc1	0.00316 µM [falling, full curve, poor fit]
Cc1ccc(NC(=O)Cn2nnc(C(=O)NCc3ccccc3)c2N)cc1C	0.01 µM [falling, full curve, poor fit]

Further records.

SMILES	AC50
O=C(Cn1[nH]c(=O)c2ccccc2c1=O)Nc1ccc2c(c1)CCC2	10 µM [rising, partial curve]
COc1cc(OC)c(Nc2cc(C)nc3nc(C)nn23)cc1Cl	10 µM [rising, partial curve]
COc1ccc(CNC(=O)c2cccc3c2C(=O)N(Cc2cccnc2)C3)cc1	3.98 µM [rising, full curve]
Cc1cc(NC(=O)c2ccccc2Oc2ccccc2)no1	12.6 µM [rising, single point]
O=C1c2ccccc2C(Nc2cccc(C(F)(F)F)c2)N1Cc1ccco1 (stereo not drawn)	25.1 µM [falling, single point]
c1ccc2c(c1)-c1cccc3c1c-2cc1ccccc13	25.1 µM [rising, partial curve]
Cc1ccc(C)c(CSc2nnc(-c3cccnc3)n2N)c1	10 µM [falling, partial curve]
CCCn1c(SCC(=O)N2CCCc3ccccc32)nnc1-c1ccco1	12.6 µM [rising, single point]
Cc1nn(CCCC(=O)N2CCc3ccccc3C2)c(=O)c2cc3sccc3n12	10 µM [rising, single point]
O=C(O)CNC1=NCCCCC1	5.01 µM [falling, single point]
COc1ccc2[nH]c(=O)c(CN(Cc3cccs3)Cc3nnnn3C(C)(C)C)cc2c1	12.6 µM [rising, single point]
CCOC(=O)C1=CN(C)C=C(C(=O)OCC)C1c1ccsc1	10 µM [rising, partial curve]
CSc1nc2c(c(=O)n1Cc1ccccc1)SC(C)C2 (stereo not drawn)	12.6 µM [rising, partial curve]
Cc1nnc(NC2=NCCCCC2)o1	1 µM [falling, partial curve, poor fit]
Clc1cccc(C=NC=Nc2cccc(Cl)c2)c1	0.0158 µM [rising, full curve, poor fit]
COc1cc(S(=O)(=O)N2CCN(Cc3ccc4c(c3)OCO4)CC2)c(C)cc1C	15.8 µM [falling, partial curve, poor fit]
Cc1ccc(SCC(=O)N2CCCC2)cc1	0.00316 µM [falling, full curve, poor fit]
Cc1ccc(S(=O)(=O)C(C#N)c2nc3ccccc3nc2N2CCCC2)cc1 (stereo not drawn)	3.16 µM [rising, full curve]
COc1ncc2nc(CCc3ccccc3)c(=O)n(-c3ccccc3)c2n1	12.6 µM [rising, partial curve]
CCN(CC)CCCN1C(=O)C(O)=C(C(=O)c2ccco2)C1c1cc(OC)ccc1OC (stereo not drawn)	0.316 µM [falling, partial curve]
Cc1nn(-c2ccc(F)cc2)c2sc(C(=O)OC3CCOC3=O)cc12 (stereo not drawn)	0.1 µM [rising, single point]
